In patent US20260240852A1, “Use of Oral JAK Kinase Inhibitors to Treat Lichen Planus” (Mayo Foundation for Medical Education and Research, priority 2023, published 2026):
At least one compound was matched to its structure with a doubt left.

System: patients with biopsy-proven cutaneous LP
Assay: Open-label, single-arm phase 2 trial of oral baricitinib in cutaneous lichen planus: clinical efficacy
Assay type: in vivo, human
Experimental: A clinical study was conducted in which 12 patients with biopsy-proven LP were trialed on oral baricitinib at a daily dose of 2 mg for 16 weeks. Other inclusionary criteria included having at least 4 lesions of LP at baseline. The mean age of participants was 63.6 years. The vast majority were female and identified as Caucasian. A quarter were under-represented minorities. The mean duration of disease for all patients was 2.2 years. Five of the 12 participants had hypertrophic LP, and 11 were refractory to prior therapy. All but one patient had previously trialed topical steroids. Almost half (41.7%) had failed oral or IM steroids.
The primary outcome of this study was PGA at week 16, with treatment response defined as greater than 50% improvement with a PGA grade of 0 to 3. Non-responsive was defined as PGA 4 and 5. Secondary endpoints included changes from baseline to week 16 in mCAILS, pruritus scores, Skindex-16, BSA, and total lesion count.
Trial Design. A single-arm, open-label, phase 2, […] trial was conducted at Mayo Clinic, Arizona (ClinicalTrials.gov identifier NCT05188521). The Mayo Clinic Institutional Review Board approved the study (IRB 21-003075), and all patients provided written informed consent. Twelve patients with biopsy-proven cutaneous LP were administered oral baricitinib 2 mg once daily for 16-weeks. The primary endpoint was an overall response by Physician Global Assessment (PGA) of skin at week 16, with treatment response defined as PGA 0 to 3 (with ≥50% score reduction). Secondary outcomes were changes in mCAILS, total body lesion count, affected BSA, pruritus numeric rating scale (NRS), pruritus verbal rating scale (VRS), pruritus visual analog scale (VAS), pain NRS, and Skindex-16. Patients were evaluated at baseline (week 0) and weeks 2, 4, 8, 12, and 16. […] Complete responders at week 16 were reassessed at week 20 and partial responders at week 16 were reassessed at week 32, after an off-therapy period of 4 weeks, respectively.
Assessments of treatment efficacy, adverse events (AEs), and QoL were completed at each study visit. All lesions were annotated, photographed, and scored using the mCAILS criteria. 16 All clinical assessments were performed by the principal investigator and co-investigators (ARM, MRP, SZ) with questionable lesions scored by 2 investigators. The revised National Cancer Institute Common Terminology Criteria for Adverse Events version 5.0 was used for AE reporting. Due to travel issues, one patient withdrew from the study after week 8. An intention-to-treat (ITT) analysis was used with the patient's last observation to impute week 16 data.
Eligibility Criteria. Patients aged ≥18 years with biopsy-proven cutaneous LP were eligible for the trial. Both treatment-naïve and treatment-refractory disease were included. Key exclusion criteria included predominantly non-cutaneous variants of LP, active infections, and other active inflammatory cutaneous conditions.
Statistical Analysis. Patient demographics, clinical characteristics, and outcomes were summarized as mean, standard deviation, median, interquartile range for continuous variables, and frequency and percentages for categorical variables. Primary and secondary outcome differences between baseline and week 16 were compared using Wilcoxon signed rank test for continuous variables and McNemar's test for binary variables. […]

[1] = oral 2 mg once daily, week 16, of the 10 treatment-responsive patients

For `CCS(=O)(=O)N1CC(CC#N)(n2cc(-c3ncnc4[nH]ccc34)cn2)C1` [baricitinib], which “Treatment response upon re-evaluation off therapy, in words” value (dose escalation patients, after 4 weeks off therapy) is on record?
Its value is “All but one patient remained treatment-responsive”.

And the “Itch (pruritus score), in words” value (oral 2 mg daily, by week 16, average pruritus score about 7 at start of trial)?
The value was “barely perceptible itch”.

And the “Treatment-responsive patients with a PGA of 0 (completely clear)” value [1]?
The value was “Five”.

And the “Treatment-responsive patients with a PGA of 1 (almost clear)” value [1]?
The value was “five”.

What about the “Sustained treatment effect off therapy, in words” value (week 20 (4 weeks off-therapy)) of the same molecule?
The value was “all patients demonstrating continued response”.
